Results as given in US10202443.
Results are given in words; binding and its absence hold for the method and conditions named. Some entries that bind do so weakly or less than the wild type.

Protein sequences, listed by entry. Tags and fused reporters are not part of them. Lines headed by an entry give the natural chain unless they say otherwise; changes in a name come on top.
UniProt Q13148: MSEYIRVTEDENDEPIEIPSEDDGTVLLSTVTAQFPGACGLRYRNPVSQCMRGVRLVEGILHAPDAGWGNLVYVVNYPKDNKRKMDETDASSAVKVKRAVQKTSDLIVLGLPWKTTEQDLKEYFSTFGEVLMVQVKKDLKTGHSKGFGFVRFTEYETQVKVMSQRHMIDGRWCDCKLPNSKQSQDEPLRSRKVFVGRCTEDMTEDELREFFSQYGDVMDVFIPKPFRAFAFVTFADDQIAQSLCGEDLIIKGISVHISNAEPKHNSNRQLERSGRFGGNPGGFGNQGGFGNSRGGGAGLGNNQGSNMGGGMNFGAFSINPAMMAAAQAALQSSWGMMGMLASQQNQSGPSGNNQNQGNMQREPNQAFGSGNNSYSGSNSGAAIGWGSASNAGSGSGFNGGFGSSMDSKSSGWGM
UniProt Q04206: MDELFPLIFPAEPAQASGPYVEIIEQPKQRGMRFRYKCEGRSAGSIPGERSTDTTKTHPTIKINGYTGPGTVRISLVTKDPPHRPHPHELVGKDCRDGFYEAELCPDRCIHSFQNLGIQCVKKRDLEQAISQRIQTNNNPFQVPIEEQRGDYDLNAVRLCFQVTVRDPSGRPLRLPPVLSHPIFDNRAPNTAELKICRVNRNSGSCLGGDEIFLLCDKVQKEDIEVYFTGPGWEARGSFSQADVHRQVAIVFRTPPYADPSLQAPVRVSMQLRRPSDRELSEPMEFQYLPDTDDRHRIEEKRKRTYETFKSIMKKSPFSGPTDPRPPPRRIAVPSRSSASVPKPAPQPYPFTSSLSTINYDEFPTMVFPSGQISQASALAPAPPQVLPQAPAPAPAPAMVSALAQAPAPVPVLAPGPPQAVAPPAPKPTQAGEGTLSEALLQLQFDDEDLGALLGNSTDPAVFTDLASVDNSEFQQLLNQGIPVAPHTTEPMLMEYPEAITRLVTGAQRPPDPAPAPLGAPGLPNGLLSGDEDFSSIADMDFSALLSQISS

Target: human recombinant TDP-43_GST Tag (human) (UniProt Q13148)
Experiment: ELISA: TDP-43 coated in dilutions, p65-His 0.2 ug/ml, anti-His-HRP, absorbance at 450 nm

With “human recombinant p65-His-Tag (Enzo Life Sciences) (from UniProt Q04206 1-551)” the binding was “binds”.
